Measured values: the supplement of paper PMC10849652
The list shows a part of the results.

Protein sequences, listed by entry. Tags and fused reporters are not part of them. Lines headed by an entry give the natural chain unless they say otherwise; changes in a name come on top.
UniProt Q15418, whole entry, looked up: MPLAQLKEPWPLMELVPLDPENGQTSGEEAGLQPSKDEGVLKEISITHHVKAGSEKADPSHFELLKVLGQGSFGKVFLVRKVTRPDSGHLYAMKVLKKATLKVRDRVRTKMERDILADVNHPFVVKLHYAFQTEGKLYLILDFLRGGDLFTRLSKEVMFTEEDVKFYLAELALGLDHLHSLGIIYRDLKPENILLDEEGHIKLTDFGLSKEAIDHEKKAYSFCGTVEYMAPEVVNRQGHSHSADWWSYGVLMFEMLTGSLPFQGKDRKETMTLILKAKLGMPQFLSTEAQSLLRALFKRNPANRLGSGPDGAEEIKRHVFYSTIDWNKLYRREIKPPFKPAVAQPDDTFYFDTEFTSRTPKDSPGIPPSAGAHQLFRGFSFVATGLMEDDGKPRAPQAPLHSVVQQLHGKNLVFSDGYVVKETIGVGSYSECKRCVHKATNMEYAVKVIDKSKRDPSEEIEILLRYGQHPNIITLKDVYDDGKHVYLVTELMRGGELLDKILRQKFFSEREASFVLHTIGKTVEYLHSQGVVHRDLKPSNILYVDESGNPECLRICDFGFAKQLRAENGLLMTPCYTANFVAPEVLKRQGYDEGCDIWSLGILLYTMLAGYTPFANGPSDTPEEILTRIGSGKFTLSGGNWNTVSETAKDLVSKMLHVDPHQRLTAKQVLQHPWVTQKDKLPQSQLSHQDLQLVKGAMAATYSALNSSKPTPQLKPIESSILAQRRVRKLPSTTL
UniProt Q9UBF6, whole entry, looked up: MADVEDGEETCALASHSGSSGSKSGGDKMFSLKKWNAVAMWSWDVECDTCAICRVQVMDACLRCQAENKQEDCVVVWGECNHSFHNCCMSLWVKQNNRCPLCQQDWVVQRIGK
UniProt P35244: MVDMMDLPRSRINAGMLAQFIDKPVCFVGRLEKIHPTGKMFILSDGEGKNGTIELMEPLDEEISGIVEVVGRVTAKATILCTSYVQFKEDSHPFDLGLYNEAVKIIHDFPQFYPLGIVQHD
UniProt P27694, whole entry, looked up: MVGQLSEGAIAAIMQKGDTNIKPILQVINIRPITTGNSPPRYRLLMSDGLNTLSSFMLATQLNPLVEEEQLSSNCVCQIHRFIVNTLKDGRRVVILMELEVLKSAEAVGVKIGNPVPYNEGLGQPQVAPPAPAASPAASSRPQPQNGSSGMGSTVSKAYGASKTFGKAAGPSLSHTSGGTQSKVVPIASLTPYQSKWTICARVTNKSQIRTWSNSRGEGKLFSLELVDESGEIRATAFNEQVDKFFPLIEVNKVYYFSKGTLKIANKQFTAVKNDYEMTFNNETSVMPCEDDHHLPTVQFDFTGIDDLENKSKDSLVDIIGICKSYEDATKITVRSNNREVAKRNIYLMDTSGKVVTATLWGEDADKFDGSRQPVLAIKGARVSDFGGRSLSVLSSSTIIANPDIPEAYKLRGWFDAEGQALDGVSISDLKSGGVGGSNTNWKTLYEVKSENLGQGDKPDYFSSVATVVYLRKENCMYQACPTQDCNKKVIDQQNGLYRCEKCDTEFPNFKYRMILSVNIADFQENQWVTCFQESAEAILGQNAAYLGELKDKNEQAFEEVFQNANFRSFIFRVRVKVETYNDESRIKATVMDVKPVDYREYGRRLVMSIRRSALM
UniProt Q9HB90, whole entry, looked up: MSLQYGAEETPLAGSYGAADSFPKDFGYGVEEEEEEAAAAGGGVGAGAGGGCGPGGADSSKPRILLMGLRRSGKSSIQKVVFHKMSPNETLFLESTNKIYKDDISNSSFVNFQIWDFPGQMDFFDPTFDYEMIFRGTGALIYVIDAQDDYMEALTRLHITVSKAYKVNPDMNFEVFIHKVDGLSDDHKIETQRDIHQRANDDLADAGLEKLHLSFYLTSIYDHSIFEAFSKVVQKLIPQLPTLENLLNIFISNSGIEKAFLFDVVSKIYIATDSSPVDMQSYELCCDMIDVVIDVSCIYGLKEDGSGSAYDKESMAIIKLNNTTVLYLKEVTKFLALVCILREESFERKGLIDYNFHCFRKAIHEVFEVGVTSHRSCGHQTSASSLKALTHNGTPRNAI
UniProt Q15349, whole entry, looked up: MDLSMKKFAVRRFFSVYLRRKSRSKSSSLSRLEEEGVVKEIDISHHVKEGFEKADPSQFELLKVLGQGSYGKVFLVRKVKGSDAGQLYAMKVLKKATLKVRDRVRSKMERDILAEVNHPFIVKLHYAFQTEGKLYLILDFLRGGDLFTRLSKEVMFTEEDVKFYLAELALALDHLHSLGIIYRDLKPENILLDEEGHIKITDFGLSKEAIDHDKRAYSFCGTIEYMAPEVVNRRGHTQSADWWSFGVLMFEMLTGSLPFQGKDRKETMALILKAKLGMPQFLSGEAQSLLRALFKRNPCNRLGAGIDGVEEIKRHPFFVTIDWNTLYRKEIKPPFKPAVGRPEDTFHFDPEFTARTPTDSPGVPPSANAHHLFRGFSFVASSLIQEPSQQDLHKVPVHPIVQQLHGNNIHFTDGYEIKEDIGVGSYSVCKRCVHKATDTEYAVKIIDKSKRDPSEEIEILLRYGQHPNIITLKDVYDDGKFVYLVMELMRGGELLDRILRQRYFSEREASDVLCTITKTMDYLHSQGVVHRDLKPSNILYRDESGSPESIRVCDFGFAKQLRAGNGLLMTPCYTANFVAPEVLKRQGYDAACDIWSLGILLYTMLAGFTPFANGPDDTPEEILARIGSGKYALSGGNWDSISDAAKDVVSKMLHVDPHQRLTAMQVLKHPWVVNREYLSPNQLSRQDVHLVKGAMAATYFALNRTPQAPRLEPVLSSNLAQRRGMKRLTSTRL
UniProt Q9H4A4: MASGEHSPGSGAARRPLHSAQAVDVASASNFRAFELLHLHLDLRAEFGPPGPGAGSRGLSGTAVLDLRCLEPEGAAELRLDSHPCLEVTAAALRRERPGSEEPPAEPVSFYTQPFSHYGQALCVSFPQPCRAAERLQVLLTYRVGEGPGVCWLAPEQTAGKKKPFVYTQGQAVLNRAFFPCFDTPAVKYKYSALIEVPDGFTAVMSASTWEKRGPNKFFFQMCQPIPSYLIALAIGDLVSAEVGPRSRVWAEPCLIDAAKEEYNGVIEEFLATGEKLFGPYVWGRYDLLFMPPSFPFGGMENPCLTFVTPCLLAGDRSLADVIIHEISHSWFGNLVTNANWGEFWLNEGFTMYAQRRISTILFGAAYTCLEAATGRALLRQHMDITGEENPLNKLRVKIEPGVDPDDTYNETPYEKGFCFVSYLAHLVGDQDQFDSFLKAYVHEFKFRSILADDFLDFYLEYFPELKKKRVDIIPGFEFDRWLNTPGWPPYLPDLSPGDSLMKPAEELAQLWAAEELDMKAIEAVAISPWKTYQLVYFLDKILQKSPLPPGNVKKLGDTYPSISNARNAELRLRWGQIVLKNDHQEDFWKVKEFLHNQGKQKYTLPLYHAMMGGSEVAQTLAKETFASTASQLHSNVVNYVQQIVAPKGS
UniProt P62070: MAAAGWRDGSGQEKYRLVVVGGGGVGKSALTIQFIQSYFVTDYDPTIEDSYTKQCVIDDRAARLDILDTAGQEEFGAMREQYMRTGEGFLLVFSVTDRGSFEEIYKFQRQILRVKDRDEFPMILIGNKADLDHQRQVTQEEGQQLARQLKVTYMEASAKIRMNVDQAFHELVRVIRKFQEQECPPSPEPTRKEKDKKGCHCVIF
UniProt P10155: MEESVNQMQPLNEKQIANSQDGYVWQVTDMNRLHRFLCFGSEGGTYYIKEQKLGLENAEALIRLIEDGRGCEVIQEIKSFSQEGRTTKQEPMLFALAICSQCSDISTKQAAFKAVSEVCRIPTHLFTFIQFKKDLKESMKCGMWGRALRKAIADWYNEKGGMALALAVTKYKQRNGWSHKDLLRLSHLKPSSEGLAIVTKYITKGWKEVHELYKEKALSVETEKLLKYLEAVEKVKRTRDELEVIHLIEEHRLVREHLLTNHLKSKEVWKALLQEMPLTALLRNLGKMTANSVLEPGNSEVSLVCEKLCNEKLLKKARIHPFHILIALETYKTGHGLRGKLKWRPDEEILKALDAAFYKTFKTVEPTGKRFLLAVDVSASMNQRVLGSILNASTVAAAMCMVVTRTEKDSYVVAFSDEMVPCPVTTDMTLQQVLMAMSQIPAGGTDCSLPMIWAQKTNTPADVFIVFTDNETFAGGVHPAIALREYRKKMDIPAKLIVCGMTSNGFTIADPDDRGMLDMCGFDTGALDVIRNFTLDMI
UniProt Q96S38: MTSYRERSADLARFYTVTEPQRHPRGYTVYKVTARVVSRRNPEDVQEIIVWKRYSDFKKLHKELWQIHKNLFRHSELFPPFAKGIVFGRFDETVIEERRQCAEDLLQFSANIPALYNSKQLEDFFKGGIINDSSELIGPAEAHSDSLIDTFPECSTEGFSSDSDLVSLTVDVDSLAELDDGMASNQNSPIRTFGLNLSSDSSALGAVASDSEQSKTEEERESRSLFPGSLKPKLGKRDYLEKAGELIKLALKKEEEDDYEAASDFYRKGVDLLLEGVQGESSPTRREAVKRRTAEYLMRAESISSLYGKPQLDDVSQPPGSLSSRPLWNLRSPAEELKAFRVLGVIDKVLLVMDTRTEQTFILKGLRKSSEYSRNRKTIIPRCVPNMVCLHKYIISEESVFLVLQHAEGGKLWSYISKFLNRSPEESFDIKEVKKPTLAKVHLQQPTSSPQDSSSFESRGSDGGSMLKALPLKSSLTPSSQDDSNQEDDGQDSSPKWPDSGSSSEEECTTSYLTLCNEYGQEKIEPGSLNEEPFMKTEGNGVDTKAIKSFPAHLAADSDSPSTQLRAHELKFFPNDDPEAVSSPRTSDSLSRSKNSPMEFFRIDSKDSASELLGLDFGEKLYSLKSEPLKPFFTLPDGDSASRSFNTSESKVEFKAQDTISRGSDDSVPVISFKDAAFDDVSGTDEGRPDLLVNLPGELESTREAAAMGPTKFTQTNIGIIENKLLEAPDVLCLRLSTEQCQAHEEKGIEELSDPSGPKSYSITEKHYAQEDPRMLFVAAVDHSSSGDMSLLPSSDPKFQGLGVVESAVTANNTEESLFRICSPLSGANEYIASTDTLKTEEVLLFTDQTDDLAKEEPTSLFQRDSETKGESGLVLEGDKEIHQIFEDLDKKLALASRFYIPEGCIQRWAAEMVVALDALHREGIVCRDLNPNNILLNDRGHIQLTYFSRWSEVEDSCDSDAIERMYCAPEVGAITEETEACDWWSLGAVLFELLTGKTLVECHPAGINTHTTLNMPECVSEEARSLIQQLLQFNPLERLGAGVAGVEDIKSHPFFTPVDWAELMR
UniProt O75116: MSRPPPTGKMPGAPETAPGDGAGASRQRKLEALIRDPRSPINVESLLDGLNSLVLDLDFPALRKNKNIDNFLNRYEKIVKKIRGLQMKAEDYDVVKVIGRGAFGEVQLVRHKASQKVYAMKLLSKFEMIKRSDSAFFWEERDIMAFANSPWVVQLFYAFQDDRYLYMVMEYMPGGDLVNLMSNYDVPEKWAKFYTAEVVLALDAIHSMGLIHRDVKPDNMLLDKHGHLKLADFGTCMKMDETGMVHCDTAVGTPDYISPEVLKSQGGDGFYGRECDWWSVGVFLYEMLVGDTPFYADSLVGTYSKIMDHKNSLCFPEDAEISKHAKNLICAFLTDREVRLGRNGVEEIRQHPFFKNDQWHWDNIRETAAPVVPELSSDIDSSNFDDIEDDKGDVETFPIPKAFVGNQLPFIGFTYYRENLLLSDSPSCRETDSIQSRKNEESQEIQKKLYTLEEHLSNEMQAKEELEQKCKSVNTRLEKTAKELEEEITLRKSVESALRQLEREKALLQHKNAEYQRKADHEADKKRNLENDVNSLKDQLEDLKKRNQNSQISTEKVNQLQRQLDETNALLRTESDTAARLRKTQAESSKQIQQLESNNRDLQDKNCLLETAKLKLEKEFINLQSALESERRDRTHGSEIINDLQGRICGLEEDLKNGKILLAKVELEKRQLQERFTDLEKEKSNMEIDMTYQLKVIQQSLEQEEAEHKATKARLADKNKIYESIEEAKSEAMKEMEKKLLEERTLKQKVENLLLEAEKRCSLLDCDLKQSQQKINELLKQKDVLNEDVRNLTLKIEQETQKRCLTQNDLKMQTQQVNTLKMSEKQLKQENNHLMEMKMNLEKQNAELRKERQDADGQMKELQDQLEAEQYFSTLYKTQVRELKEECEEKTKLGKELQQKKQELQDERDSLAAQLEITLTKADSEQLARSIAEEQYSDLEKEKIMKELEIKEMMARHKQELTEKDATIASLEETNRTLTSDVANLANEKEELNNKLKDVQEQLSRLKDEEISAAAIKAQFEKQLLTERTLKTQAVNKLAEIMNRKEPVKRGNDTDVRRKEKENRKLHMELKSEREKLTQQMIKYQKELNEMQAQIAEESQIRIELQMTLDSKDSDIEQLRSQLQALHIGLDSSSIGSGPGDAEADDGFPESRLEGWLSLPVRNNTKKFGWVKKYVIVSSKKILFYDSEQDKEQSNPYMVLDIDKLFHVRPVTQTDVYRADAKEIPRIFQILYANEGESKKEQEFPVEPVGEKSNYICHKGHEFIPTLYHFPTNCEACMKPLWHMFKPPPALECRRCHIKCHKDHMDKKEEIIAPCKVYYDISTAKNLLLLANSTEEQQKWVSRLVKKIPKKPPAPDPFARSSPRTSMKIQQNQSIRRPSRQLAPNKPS

Tests used:
Experiment in all cases: log2 fold change, soluble protein after heating vs DMSO (PISA); higher = thermal stabilisation; K562 cells, 10 uM, 30 min; active = over 0.2 and 3.5 SD of the protein, either way, in both replicates (recomputed)
saracatinib = compound: CN1CCN(CCOc2cc(OC3CCOCC3)c3c(Nc4c(Cl)ccc5c4OCO5)ncnc3c2)CC1 [saracatinib]
Summary of the method: (§1)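 For each measurement, 10 μM compound was applied for 30 min to K562 cells at 2×10^6 cells/mL. Aliquots were heated for 3 min across 48°C-58°C, pooled, and extracted in PBS with 0.5% NP-40 at 4°C; the supernatant after 21,000xg for 90 min was soluble protein. This was quantified by TMTpro 16plex LC-MS/MS with channel sums equalised, and thermal stability was reported relative to control samples from duplicates, on a log2 fold-change scale.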

sotrastaurin = compound: CN1CCN(c2nc(C3=C(c4c[nH]c5ccccc45)C(=O)NC3=O)c3ccccc3n2)CC1 [sotrastaurin]
Summary of the method: as §1

Tubastatin A = compound: CN1CCc2c(c3ccccc3n2Cc2ccc(C(=O)NO)cc2)C1 [Tubastatin A]
Summary of the method: as §1

[1] = compound: CNC(=O)C1=CC=CC=C1NC2=NC(=NC=C2Cl)NC3=C(C=C(C=C3)N4CCOCC4)OC
Summary of the method: as §1

defactinib = compound: CNC(=O)c1ccc(Nc2ncc(C(F)(F)F)c(NCc3nccnc3N(C)S(C)(=O)=O)n2)cc1 [defactinib]
Summary of the method: as §1

rucaparib = compound: CNCc1ccc(-c2[nH]c3cc(F)cc4c3c2CCNC4=O)cc1 [rucaparib]
Summary of the method: as §1

[2] = compound: CNc1nc(-c2ccc3c(N)n[nH]c3c2)cc(N2C[C@@H](C(=O)NC3CCCCC3)CC[C@H]2C)n1
Summary of the method: as §1

encorafenib = compound: COC(=O)N[C@@H](C)CNc1nccc(-c2cn(C(C)C)nc2-c2cc(Cl)cc(NS(C)(=O)=O)c2F)n1 [encorafenib]
Summary of the method: as §1

[3] = compound: COC(=O)[C@H](CCSC)NC(=O)C1=C(C=C(C=C1)NC[C@H](CS)N)C2=CC=CC=C2
Summary of the method: as §1

alvocidib = compound: CN1CC[C@H](c2c(O)cc(O)c3c(=O)cc(-c4ccccc4Cl)oc23)[C@H](O)C1 [alvocidib]
Summary of the method: as §1

| Target | log2 fold change (saracatinib) | log2 fold change (sotrastaurin) | log2 fold change (Tubastatin A) | log2 fold change [1] | log2 fold change (defactinib) | log2 fold change (rucaparib) | log2 fold change [2] | log2 fold change (encorafenib) | log2 fold change [3] | log2 fold change (alvocidib) |
| --- | --- | --- | --- | --- | --- | --- | --- | --- | --- | --- |
| RNPS1 (UniProt Q15287) | inactive: 0.036 | inactive: 0.013 | inactive: 0.107 | inactive: -0.243 | inactive: -0.067 | inactive: 0.023 | inactive: -0.026 | inactive: -0.033 | inactive: -0.019 | – |
| RPP14 (UniProt O95059) | inactive: 0.064 | inactive: -0.01 | inactive: 0.059 | inactive: -0.039 | inactive: 0.012 | inactive: 0.004 | inactive: -0.029 | inactive: 0.046 | inactive: -0.034 | – |
| RPL4 (UniProt P36578) | inactive: -0.131 | inactive: -0.076 | inactive: 0.256 | inactive: 0.064 | inactive: 0.628 | inactive: 0.5 | inactive: 0.23 | inactive: 0.236 | inactive: -0.04 | inactive: 0.446 |
| RPS6 (UniProt P62753) | inactive: -0.056 | inactive: 0 | inactive: 0.153 | inactive: 0.079 | inactive: 0.283 | inactive: 0.302 | inactive: 0.265 | inactive: 0.183 | inactive: -0.142 | inactive: 0.374 |
| RPS16 (UniProt P62249) | inactive: -0.085 | inactive: 0.004 | inactive: 0.05 | inactive: 0.108 | inactive: 0.185 | inactive: 0.126 | inactive: 0.056 | inactive: 0.033 | inactive: 0.004 | – |
| RPS14 (UniProt P62263) | inactive: 0.027 | inactive: -0.003 | inactive: 0.123 | inactive: 0.056 | inactive: 0.113 | inactive: 0.107 | inactive: 0.069 | inactive: 0.013 | inactive: -0.084 | – |
| RPS6KA1 isoform 2 (UniProt Q15418) | inactive: 0.02 | inactive: -0.067 | inactive: 0.005 | inactive: -0.088 | inactive: -0.258 | inactive: -0.108 | inactive: -0.101 | inactive: -0.018 | inactive: -0.015 | – |
| RPS4X (UniProt P62701) | inactive: -0.164 | inactive: -0.017 | inactive: 0.123 | inactive: 0.063 | inactive: 0.302 | inactive: 0.185 | inactive: 0.089 | inactive: 0.08 | inactive: 0.014 | – |
| RNF7 (UniProt Q9UBF6) | inactive: -0.008 | inactive: 0.154 | inactive: -0.034 | inactive: -0.012 | inactive: -0.031 | inactive: -0.004 | inactive: 0 | inactive: -0.015 | inactive: 0.057 | inactive: -0.033 |
| RPS27A (UniProt P62979) | inactive: 0.029 | inactive: 0.107 | inactive: -0.013 | inactive: 0.05 | inactive: 0.227 | inactive: 0.105 | inactive: 0.043 | inactive: -0.007 | inactive: 0.156 | – |
| RPS19 (UniProt P39019) | inactive: -0.024 | inactive: 0.001 | inactive: 0.089 | inactive: 0.07 | inactive: 0.167 | inactive: 0.136 | inactive: 0.064 | inactive: 0.028 | inactive: -0.004 | – |
| RPA3 (UniProt P35244) | inactive: 0.015 | inactive: -0.014 | inactive: 0.022 | inactive: 0.181 | inactive: -0.054 | inactive: -0.048 | inactive: 0.015 | inactive: 0.06 | inactive: 0.014 | – |
| RPA1 (UniProt P27694) | inactive: -0.007 | inactive: -0.016 | inactive: 0.039 | inactive: 0.012 | inactive: -0.076 | inactive: 0.027 | inactive: -0.01 | inactive: 0.076 | inactive: -0.021 | – |
| RPL35 (UniProt P42766) | inactive: -0.127 | inactive: -0.018 | inactive: 0.245 | inactive: 0.047 | inactive: 0.373 | inactive: 0.355 | inactive: 0.18 | inactive: 0.194 | inactive: -0.016 | inactive: 0.293 |
| RRAGC (UniProt Q9HB90) | inactive: 0.023 | inactive: 0.006 | inactive: -0.025 | inactive: -0.014 | inactive: -0.005 | inactive: -0.058 | inactive: -0.063 | inactive: 0.036 | inactive: -0.005 | – |
| RPTOR (UniProt Q8N122) | inactive: -0.005 | inactive: -0.01 | inactive: 0.027 | inactive: -0.044 | inactive: -0.074 | inactive: -0.068 | inactive: 0.033 | inactive: 0.047 | inactive: -0.039 | – |

An excerpt of these results, with tabs.
Target	log2 fold change (saracatinib)	log2 fold change (sotrastaurin)	log2 fold change (Tubastatin A)	log2 fold change [1]	log2 fold change (defactinib)	log2 fold change (rucaparib)	log2 fold change [2]	log2 fold change (encorafenib)	log2 fold change [3]	log2 fold change (alvocidib)
RNPS1 (UniProt Q15287)	inactive: 0.036	inactive: 0.013	inactive: 0.107	inactive: -0.243	inactive: -0.067	inactive: 0.023	inactive: -0.026	inactive: -0.033	inactive: -0.019	–
RPP14 (UniProt O95059)	inactive: 0.064	inactive: -0.01	inactive: 0.059	inactive: -0.039	inactive: 0.012	inactive: 0.004	inactive: -0.029	inactive: 0.046	inactive: -0.034	–

Next entries follow:

| Target | log2 fold change (saracatinib) | log2 fold change (sotrastaurin) | log2 fold change (Tubastatin A) | log2 fold change [1] | log2 fold change (defactinib) | log2 fold change (rucaparib) | log2 fold change [2] | log2 fold change (encorafenib) | log2 fold change [3] | log2 fold change (alvocidib) |
| --- | --- | --- | --- | --- | --- | --- | --- | --- | --- | --- |
| RPS9 (UniProt P46781) | inactive: -0.044 | inactive: -0.015 | inactive: 0.119 | inactive: 0.083 | inactive: 0.226 | inactive: 0.108 | inactive: 0.095 | inactive: 0.118 | inactive: -0.027 | – |
| RPS2 (UniProt P15880) | inactive: -0.058 | inactive: 0 | inactive: 0.059 | inactive: 0.064 | inactive: 0.261 | inactive: 0.153 | inactive: 0.081 | inactive: 0.07 | inactive: 0.042 | – |
| RPS6KA2 isoform 2 (UniProt Q15349) | inactive: 0 | inactive: -0.049 | inactive: -0.01 | active: -0.422 | inactive: -0.209 | inactive: -0.049 | inactive: -0.08 | inactive: 0.014 | inactive: -0.009 | – |
| RNPEP (UniProt Q9H4A4) | inactive: -0.02 | inactive: -0.038 | inactive: 0.064 | inactive: 0.034 | inactive: -0.036 | inactive: -0.004 | inactive: 0.04 | inactive: -0.005 | inactive: -0.041 | – |
| RPS12 (UniProt P25398) | inactive: -0.014 | inactive: -0.023 | inactive: 0.017 | inactive: 0.049 | inactive: 0.092 | inactive: 0.12 | inactive: -0.008 | inactive: 0.02 | inactive: 0.015 | – |
| RPS20 isoform 2 (UniProt P60866) | inactive: -0.1 | inactive: 0.019 | inactive: 0.054 | inactive: 0.066 | inactive: 0.216 | inactive: 0.093 | inactive: -0.009 | inactive: 0.041 | inactive: 0.001 | – |
| RRBP1 (UniProt Q9P2E9) | inactive: -0.072 | inactive: -0.048 | inactive: 0.157 | inactive: 0.014 | inactive: 0.353 | inactive: 0.387 | inactive: 0.079 | inactive: 0.146 | inactive: 0.013 | inactive: 0.292 |
| RRAS2 isoform 4 (UniProt P62070) | inactive: 0.069 | inactive: 0.075 | inactive: 0.014 | inactive: -0.001 | inactive: -0.016 | inactive: 0 | inactive: 0.05 | inactive: -0.011 | inactive: 0.004 | – |
| RO60 (UniProt P10155) | inactive: 0.027 | inactive: 0.079 | inactive: -0.013 | inactive: -0.02 | inactive: 0 | inactive: 0.018 | inactive: -0.059 | inactive: -0.033 | inactive: 0.045 | inactive: 0.006 |
| RPS3 (UniProt P23396) | inactive: -0.03 | inactive: 0.031 | inactive: 0.094 | inactive: 0.082 | inactive: 0.208 | inactive: 0.097 | inactive: 0.04 | inactive: 0.045 | inactive: 0.002 | – |
| RPS6KC1 (UniProt Q96S38) | inactive: -0.586 | inactive: -0.053 | inactive: 0.022 | inactive: -0.042 | inactive: -0.084 | inactive: 0.084 | inactive: -0.411 | inactive: -0.156 | inactive: -0.038 | inactive: -0.041 |
| RPS15 (UniProt P62841) | inactive: -0.02 | inactive: 0.07 | inactive: 0.087 | inactive: 0.04 | inactive: 0.233 | inactive: 0.226 | inactive: 0.061 | inactive: 0.028 | inactive: 0.06 | – |
| ROCK2 (UniProt O75116) | inactive: 0.02 | inactive: -0.096 | inactive: -0.001 | inactive: -0.062 | inactive: -0.097 | inactive: -0.027 | inactive: 0.212 | inactive: 0.042 | inactive: -0.003 | – |
| RPL31 (UniProt P62899) | inactive: -0.068 | inactive: -0.003 | inactive: 0.147 | inactive: 0.096 | inactive: 0.282 | inactive: 0.238 | inactive: 0.121 | inactive: 0.088 | inactive: -0.052 | – |
| ROGDI (UniProt Q9GZN7) | – | – | – | – | – | inactive: 0.183 | – | inactive: 0.05 | – | inactive: 0.061 |
